This note sets out measurements from the supplement of paper PMC4807443.

Structures are written as SMILES. Where a name gives a salt, the structure may show the parent alone. Some of the results follow. The numbers are fractions of the control, whatever unit the source prints. Most values lie at the level of the controls, where differences are scatter.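 MIN6, a mouse insulinoma beta-cell line, stably carries a lentiviral reporter where Pdx1 and Ins1 promoters each drive a nuclear fluorescent protein; Hoechst staining and automated imaging counted cells. Drugs were candidate hits if Ins1 promoter readout exceeded two median absolute deviations from DMSO controls while Pdx1 activity stayed near normal.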

The assay deals with MIN6. In words: % Pdx1+ Ins1-low (RFP-only, immature) cells relative to DMSO control (fold of DMSO control); higher = more immature Pdx1+/Ins1-low cells. The note with it: 8.5 µM; 48 h; glucose 5 mM.
Take `CCN(CC)CCOCCOC(=O)C1(c2ccccc2)CCCC1` [Carbetapentane citrate]: the “% Pdx1+ Ins1-low” value was found to be 0.839.
Take `CC(C)(CO)[C@@H](O)C(=O)NCCC(=O)O` [Pantothenic acid calcium salt monohydrate]: the “% Pdx1+ Ins1-low” value came to 0.92.
In the case of `CCN(CCCCOC(=O)c1ccc(OC)c(OC)c1)C(C)Cc1ccc(OC)cc1` (stereo not given) [Mebeverine hydrochloride], the “% Pdx1+ Ins1-low” value came out at 1.01.
Take `Cc1cc(C(C)(C)C)cc(C)c1CC1=NCCN1` [Xylometazoline hydrochloride]: the “% Pdx1+ Ins1-low” value was 1.18.
As for `CC#C[C@]1(O)CC[C@H]2[C@@H]3CCC4=CC(=O)CCC4=C3[C@@H](c3ccc(N(C)C)cc3)C[C@@]21C` [Mifepristone], the “% Pdx1+ Ins1-low” value worked out at 1.09.
Turning to `COc1ccc(Cl)cc1C(=O)NCCc1ccc(S(=O)(=O)NC(=O)NC2CCCCC2)cc1` [Glibenclamide], the “% Pdx1+ Ins1-low” value came to 0.984.
Regarding `CCCOc1ccccc1-c1nc2[nH]nnc2c(=O)[nH]1` [Zaprinast], the “% Pdx1+ Ins1-low” value turned out to be 0.776.
Regarding `COc1cc(NS(=O)(=O)c2ccc(N)cc2)ncn1` [Sulfamonomethoxine], the “% Pdx1+ Ins1-low” value amounted to 0.919.
`Cc1cc(C)nc(NS(=O)(=O)c2ccc(N)cc2)n1` [Sulfamethazine sodium salt]: the “% Pdx1+ Ins1-low” value came to 1.08.
Take `CN(C(=O)CN(CCO)CC(=O)N(C)C(C)(C)Cc1ccccc1)C(C)(C)Cc1ccccc1` [Oxethazaine]: the “% Pdx1+ Ins1-low” value amounted to 1.
Turning to `CC(C(O)c1ccc(O)cc1)N1CCC(Cc2ccccc2)CC1` (stereo not given) [Ifenprodil tartrate], the “% Pdx1+ Ins1-low” value was determined as 0.898.
With `C[C@@H]1C/C=C/C=C/C=C/C=C/[C@H](O[C@@H]2O[C@H](C)[C@@H](O)[C@H](N)[C@@H]2O)C[C@@H]2O[C@](O)(C[C@@H](O)C[C@H]3O[C@@H]3/C=C/C(=O)O1)C[C@H](O)[C@H]2C(=O)O` [Natamycin] the figure was 1.5.
The result for `CO/N=C(\C(=O)N[C@@H]1C(=O)N2C(C(=O)O)=C(COC(C)=O)CS[C@H]12)c1csc(N)n1` [Cefotaxime sodium salt] reads 1.11; that for `COc1cc(CNC(=O)CCCC/C=C/C(C)C)ccc1O` [Capsaicin], 0.57.
Regarding `O=C(O)[C@@H]1[C@H]2C[C@H]3c4[nH]c5ccccc5c4CCN3C[C@@H]2CC[C@@H]1O` [Yohimbinic acid monohydrate], the “% Pdx1+ Ins1-low” value was 1.26.
`CC(=O)Nc1nnc(S(N)(=O)=O)s1` [Acetazolamide]: the “% Pdx1+ Ins1-low” value is 0.746.
For `Cc1cc2cc3c(C)cc(=O)oc3c(C)c2o1` [Trioxsalen], the “% Pdx1+ Ins1-low” value was 0.84.
With `CCCCOc1cc(C(=O)OCCN(CC)CC)ccc1N` [Benoxinate hydrochloride], the “% Pdx1+ Ins1-low” value stood at 1.36.
Turning to `CC(=O)c1cc2ccccc2oc1=O` [3-Acetylcoumarin], the “% Pdx1+ Ins1-low” value is 0.699.
The result for `CCN(CC)CCNC(=O)c1ccc(N)cc1` [Procainamide hydrochloride] reads 1.69; that for `CC(=O)Nc1c(I)c(C(=O)N[C@H]2C(O)O[C@H](CO)[C@@H](O)[C@@H]2O)c(I)c(N(C)C(C)=O)c1I` (stereo not given in full) [Metrizamide], 0.857; that for `CCOC1O[C@H]([C@@H](COCc2ccccc2)OCc2ccccc2)[C@H](OCc2ccccc2)[C@H]1O` (stereo not given in full) [Tribenoside], 1.17.
With `CC(C)[N+]1(C)[C@@H]2CC[C@H]1C[C@@H](OC(=O)C(CO)c1ccccc1)C2` (stereo not given in full) [Ipratropium bromide], the “% Pdx1+ Ins1-low” value was 1.08.
On to `Nc1ccc(S(=O)(=O)Nc2nccs2)cc1` [Sulfathiazole], for which the “% Pdx1+ Ins1-low” value turned out to be 0.978.
With `CC(CNC1CCCCC1)OC(=O)c1ccccc1` (stereo not given) [Hexylcaine hydrochloride] the figure was 1.06; with `CN[C@H]1CC[C@@H](c2ccc(Cl)c(Cl)c2)c2ccccc21` [Sertraline], 0.764; with `C[C@@H]1CCC[C@H](C)N1NC(=O)c1ccc(Cl)c(S(N)(=O)=O)c1` [Clopamide], 0.538.
Take `NC(Cn1ccc(=O)c(O)c1)C(=O)O` (stereo not given) [Mimosine]: the “% Pdx1+ Ins1-low” value amounted to 0.899.
In the case of `COC(=O)Nc1nc2cc(Sc3ccccc3)ccc2[nH]1` [Fenbendazole], the “% Pdx1+ Ins1-low” value worked out at 1.56.
In the case of `CC(=O)N(CC(O)CO)c1c(I)c(C(=O)NCC(O)CO)c(I)c(C(=O)NCC(O)CO)c1I` (stereo not given) [Iohexol], the “% Pdx1+ Ins1-low” value was 0.892.
On to `CN(CCCCCCCCCCN(C)C(=O)Oc1cccc([N+](C)(C)C)c1)C(=O)Oc1cccc([N+](C)(C)C)c1` [Demecarium bromide], for which the “% Pdx1+ Ins1-low” value amounted to 0.808.
Turning to `CN1CCN(CC(=O)N2c3ccccc3C(=O)Nc3cccnc32)CC1` [Pirenzepine dihydrochloride], the “% Pdx1+ Ins1-low” value was 0.929.
As to `Nc1ncnc2c1ncn2[C@@H]1O[C@H](CO)[C@@H](O)[C@@H]1O` [Vidarabine], the “% Pdx1+ Ins1-low” value worked out at 0.771.
On to `CN(C)CCC(c1ccc(Br)cc1)c1ccccn1` (stereo not given) [Brompheniramine maleate], for which the “% Pdx1+ Ins1-low” value amounted to 0.656.
With `CCC1(c2ccccc2)C(=O)NCNC1=O` [Primidone] the figure was 0.636; with `CCN(CC)C(=O)c1ccc(O)c(OC)c1` [Ethamivan], 1.1; with `O=C(c1ccc(F)cc1)C1CCN(CCn2c(=O)[nH]c3ccccc3c2=O)CC1` [Ketanserin tartrate hydrate], 0.975.
For `C[C@H]1[C@H](C)CC[C@]2(C(=O)O)CC[C@]3(C)C(=CC[C@@H]4[C@@]5(C)CC[C@H](O)C(C)(C)[C@@H]5CC[C@]43C)[C@H]12` [Ursolic acid], the “% Pdx1+ Ins1-low” value came to 0.872.
On to `O=C1NCC2(CCN(CCc3ccccc3)CC2)O1` [Fenspiride hydrochloride], for which the “% Pdx1+ Ins1-low” value was 1.05.
On to `CN(C)CCOC(c1ccccc1)c1ccccc1.Cn1c(=O)c2[nH]c(Cl)nc2n(C)c1=O` [Dimenhydrinate], for which the “% Pdx1+ Ins1-low” value stood at 1.15.
With `Cc1cc2nc3c(=O)[nH]c(=O)nc-3n(C[C@H](O)[C@H](O)[C@H](O)CO)c2cc1C` [Riboflavine], the “% Pdx1+ Ins1-low” value stood at 1.12.
Take `Clc1cccc(Cl)c1NC1=NCCN1` [Clonidine hydrochloride]: the “% Pdx1+ Ins1-low” value was 1.06.
With `N=C(N)NCCCCNC(=N)N` [Arcaine sulfate] the figure was 0.612.
For the compound `CCCNC(=O)NS(=O)(=O)c1ccc(Cl)cc1` [Chlorpropamide], the “% Pdx1+ Ins1-low” value stood at 0.975.
Turning to `CCN(CC)C(C)CN1c2ccccc2Sc2ccccc21` (stereo not given) [Ethopropazine hydrochloride], the “% Pdx1+ Ins1-low” value stood at 0.745.
For the compound `CNCCc1ccccn1` [Betahistine mesylate], the “% Pdx1+ Ins1-low” value amounted to 0.872.
With `CC=CC(=O)N(CC)c1ccccc1C` [Crotamiton], the “% Pdx1+ Ins1-low” value was 1.1.
Regarding `CN(C)C(=N)NC(=N)N` [Metformin hydrochloride], the “% Pdx1+ Ins1-low” value is 0.991.
Turning to `NCCCCCC(=O)O` [Aminocaproic acid], the “% Pdx1+ Ins1-low” value was 0.937.
Take `Nc1nc2c(ncn2COC(CO)CO)c(=O)[nH]1` [Ganciclovir]: the “% Pdx1+ Ins1-low” value amounted to 0.439.
